Source: PMC10855902 (International Journal of Molecular Sciences, 2024)

Assay: general procedure: Fmoc solid-phase peptide synthesis; DMT/NMM/TosO-, NMM
Conditions: whole synthesis, HPLC (10-100% B in 30 min, Method 1), scale of the general procedure 0.5 g resin

| Substance | crude HPLC purity [%] |
| --- | --- |
| ^10HDGYCLHDGVCMY^22 | 91.7 |
| ^10HDGYCL^15 | 84.5 |
| ^10HDGYCL^15+^29Y+^41R | 81.5 |
| ^13YCLHDGV^19 | 89.5 |
| ^22YIEALDK^28 | 83.0 |
| ^26LDKYACNCV^34 | 79.2 |
| ^34VVGYIGERCQYRDL^47 | 87.7 |
| ^38IGERCQ^43 | 90 |
| ^43QYRDL^47 | 75.1 |
